Measurements reported in US11602551B2, “Use of inosine for the treatment of t-reg deficiency” (BioGaia AB, priority 2016, dated 2023).
At least one compound was matched to its structure with a doubt left.

Experiments:
SF mice [1] = test: Survival of SF (scurfy) mice, Kaplan-Meier; type: in vivo; conditions: inosine 800 mg/kg per day orally from d8
SF mice [2] = test: Flow cytometry of IFN-γ-producing (TH1) and IL-4-producing (TH2) CD4+ T cells in spleen and MLN; type: in vivo; conditions: inosine 800 mg/kg per day orally from d8
SF mice [3] = test: Plasma cytokine assays (Meso Scale Discovery); type: in vivo; conditions: inosine 800 mg/kg per day orally from d8
[4] = system: IFN-γ in TH1, IL-4 in TH2; test: Relative mRNA expression of IFN-γ in TH1 and IL-4 in TH2 (qPCR); type: cell-based, mice; conditions: 2 mM of inosine, after 24 h and 72 h
SF mice [5] = test: Histopathology: lymphocyte infiltration of liver and lung (H&E, morphometry); type: in vivo; conditions: inosine 800 mg/kg per day orally from d8
naïve CD4+ T cells = test: Naïve CD4+ T cell in vitro differentiation to TH1 and TH2; type: cell-based; conditions: 2 mM of inosine, 5 days, naïve CD4+ T cells from WT mice

For O=c1[nH]cnc2c1ncn2[C@@H]1O[C@H](CO)[C@@H](O)[C@H]1O [inosine], the “survival of SF mice” value (SF mice [1]) was “significantly prolonged”, the “frequency of TH1 cells in the spleen” value (SF mice [2]) was “reduced” and the “frequency of TH2 cells in the spleen” value (SF mice [2]) was “reduced”. The “level of IFN-γ in plasma” value (SF mice [3]) was “reduced”, the “level of IL-4 in plasma” value (SF mice [3]) was “reduced” and the “relative mRNA expression of IFN-γ in TH1” value [4] was “inhibits”. For the same compound, the “relative mRNA expression of IL-4 in TH2” value [4] was “inhibits”, the “inflammatory cell infiltration of liver and lung” value (SF mice [5]) was “reduced” and the “differentiation of TH1 cells in vitro” value (naïve CD4+ T cells) was “inhibited”. For the same compound, the “differentiation of TH2 cells in vitro” value (naïve CD4+ T cells) was “inhibited”, the “differentiation of TH1 cells in vitro” value (naïve CD4+ T cells; listed as Inosine) was “suppresses” and the “differentiation of TH2 cells in vitro” value (naïve CD4+ T cells; listed as Inosine) was “suppresses”.
